Source: PMC5400277
These are yes or no findings as the source states them, for the method shown. Sequences can lack the tags named with a protein.

T1: SPATULA (SPT), yeast two-hybrid fusion (Arabidopsis) (UniProt Q9FUA4)
T1 sequence: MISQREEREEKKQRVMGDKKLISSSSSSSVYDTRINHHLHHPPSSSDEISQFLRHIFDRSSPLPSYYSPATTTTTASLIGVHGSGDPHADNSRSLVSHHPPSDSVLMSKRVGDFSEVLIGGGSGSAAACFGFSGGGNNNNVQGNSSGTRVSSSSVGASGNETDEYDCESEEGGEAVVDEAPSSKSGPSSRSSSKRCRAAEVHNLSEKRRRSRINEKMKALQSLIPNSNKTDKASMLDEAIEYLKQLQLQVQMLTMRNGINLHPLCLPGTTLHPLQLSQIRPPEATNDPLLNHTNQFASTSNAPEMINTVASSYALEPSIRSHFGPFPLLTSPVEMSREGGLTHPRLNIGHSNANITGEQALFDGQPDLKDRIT


Target: T1, SPATULA (SPT), yeast two-hybrid fusion (Arabidopsis)
Test: two-hybrid; DNA-binding domain fusion (SPT in the LexA vector pBTM116c-D9) against Gal4 activation domain fusions (ARRs in pACT2); yeast strain L40ccaU; SD-Gluc medium lacking Leu, Trp, His with 3 mM 3-amino-1,2,4-triazole; scored after 5 days at 25°C

binding	Binder
no binding	ARR5, yeast two-hybrid fusion (protein, UniProt Q9SB04 1-184) MAEVLRPEMLDISNDTSSLASPKLLHVLAVDDSMVDRKFIERLLRVSSCKVTVVDSATRALQYLGLDGENNSSVGFEDLKINLIMTDYSMPGMTGYELLKKIKESSAFREIPVVIMSSENILPRIDRCLEEGAEDFLLKPVKLADVKRLRDSLMKAEERAFKNIMHKRELEANDIYSQLKRAKI
no binding	ARR6, yeast two-hybrid fusion (protein, UniProt Q9ZWS6 1-186) MAEVMLPRKMEILNHSSKFGSPDPLHVLAVDDSHVDRKFIERLLRVSSCKVTVVDSATRALQYLGLDVEEKSVGFEDLKVNLIMTDYSMPGMTGYELLKKIKESSAFREVPVVIMSSENILPRIDRCLEEGAEDFLLKPVKLSDVKRLRDSLMKVEDLSFTKSIQKRELETENVYPVHSQLKRAKI
no binding	ARR4, yeast two-hybrid fusion (protein, UniProt O82798 1-259) MARDGGVSCLRRSEMMSVGGIGGIESAPLDLDEVHVLAVDDSLVDRIVIERLLRITSCKVTAVDSGWRALEFLGLDNEKASAEFDRLKVDLIITDYCMPGMTGYELLKKIKESSNFREVPVVIMSSENVLTRIDRCLEEGAQDFLLKPVKLADVKRLRSHLTKDVKLSNGNKRKLPEDSSSVNSSLPPPSPPLTISPESSPPLTVSTESSDSSPPLSPVEIFSTSPLSSPIDDEDDDVLTSSSEESPIRRQKMRSPGLD
no binding	ARR9, yeast two-hybrid fusion (protein, UniProt O80366 1-234) MGMAAESQFHVLAVDDSLFDRKLIERLLQKSSCQVTTVDSGSKALEFLGLRQSTDSNDPNAFSKAPVNHQVVEVNLIITDYCMPGMTGYDLLKKVKESSAFRDIPVVIMSSENVPARISRCLEEGAEEFFLKPVRLADLNKLKPHMMKTKLKNQKLEEIETTSKVENGVPTAVADPEIKDSTNIEIEILPLQQDLLLVQQEEQTLSINNKRKSVEEGISTDRARPRFDGIATAV
no binding	ARR12, yeast two-hybrid fusion (protein, UniProt P62598 1-596) MTVEQNLEALDQFPVGMRVLAVDDDQTCLKILESLLRHCQYHVTTTNQAQKALELLRENKNKFDLVISDVDMPDMDGFKLLELVGLEMDLPVIMLSAHSDPKYVMKGVTHGACDYLLKPVRIEELKNIWQHVVRSRFDKNRGSNNNGDKRDGSGNEGVGNSDQNNGKGNRKRKDQYNEDEDEDRDDNDDSCAQKKQRVVWTVELHKKFVAAVNQLGYEKAMPKKILDLMNVEKLTRENVASHLQKFRLYLKRISGVANQQAIMANSELHFMQMNGLDGFHHRPIPVGSGQYHGGAPAMRSFPPNGILGRLNTPSGIGVRSLSSPPAGMFLQNQTDIGKFHHVSSLPLNHSDGGNILQGLPMPLEFDQLQTNNNKSRNMNSNKSIAGTSMAFPSFSTQQNSLISAPNNNVVVLEGHPQATPPGFPGHQINKRLEHWSNAVSSSTHPPPPAHNSNSINHQFDVSPLPHSRPDPLEWNNVSSSYSIPFCDSANTLSSPALDTTNPRAFCRNTDFDSNTNVQPGVFYGPSTDAMALLSSSNPKEGFVVGQQKLQSGGFMVADAGSLDDIVNSTMKQEQSQGDLSGGDLGYGGFSSLRTCI
no binding	ARABIDOPSIS RESPONSE REGULATOR 1 (ARR1), yeast two-hybrid fusion (protein, UniProt Q940D0 1-690) MMNPSHGRGLGSAGGSSSGRNQGGGGETVVEMFPSGLRVLVVDDDPTCLMILERMLRTCLYEVTKCNRAEMALSLLRKNKHGFDIVISDVHMPDMDGFKLLEHVGLEMDLPVIMMSADDSKSVVLKGVTHGAVDYLIKPVRMEALKNIWQHVVRKRRSEWSVPEHSGSIEETGERQQQQHRGGGGGAAVSGGEDAVDDNSSSVNEGNNWRSSSRKRKDEEGEEQGDDKDEDASNLKKPRVVWSVELHQQFVAAVNQLGVEKAVPKKILELMNVPGLTRENVASHLQKYRIYLRRLGGVSQHQGNLNNSFMTGQDASFGPLSTLNGFDLQALAVTGQLPAQSLAQLQAAGLGRPAMVSKSGLPVSSIVDERSIFSFDNTKTRFGEGLGHHGQQPQQQPQMNLLHGVPTGLQQQLPMGNRMSIQQQIAAVRAGNSVQNNGMLMPLAGQQSLPRGPPPMLTSSQSSIRQPMLSNRISERSGFSGRNNIPESSRVLPTSYTNLTTQHSSSSMPYNNFQPELPVNSFPLASAPGISVPVRKATSYQEEVNSSEAGFTTPSYDMFTTRQNDWDLRNIGIAFDSHQDSESAAFSASEAYSSSSMSRHNTTVAATEHGRNHQQPPSGMVQHHQVYADGNGGSVRVKSERVATDTATMAFHEQYSNQEDLMSALLKQEGIAPVDGEFDFDAYSIDNIPV
no binding	ARR10, yeast two-hybrid fusion (protein, UniProt O49397 1-552) MTMEQEIEVLDQFPVGMRVLAVDDDQTCLRILQTLLQRCQYHVTTTNQAQTALELLRENKNKFDLVISDVDMPDMDGFKLLELVGLEMDLPVIMLSAHSDPKYVMKGVKHGACDYLLKPVRIEELKNIWQHVVRKSKLKKNKSNVSNGSGNCDKANRKRKEQYEEEEEEERGNDNDDPTAQKKPRVLWTHELHNKFLAAVDHLGVERAVPKKILDLMNVDKLTRENVASHLQKFRVALKKVSDDAIQQANRAAIDSHFMQMNSQKGLGGFYHHHRGIPVGSGQFHGGTTMMRHYSSNRNLGRLNSLGAGMFQPVSSSFPRNHNDGGNILQGLPLEELQINNNINRAFPSFTSQQNSPMVAPSNLLLLEGNPQSSSLPSNPGFSPHFEISKRLEHWSNAALSTNIPQSDVHSKPDTLEWNAFCDSASPLVNPNLDTNPASLCRNTGFGSTNAAQTDFFYPLQMNQQPANNSGPVTEAQLFRSSNPNEGLLMGQQKLQSGLMASDAGSLDDIVNSLMTQEQSQSDFSEGDWDLDGLAHSEHAYEKLHFPFSLSA
no binding	ARR14, yeast two-hybrid fusion (protein, UniProt Q8L9Y3 1-382) MPINDQFPSGLRILVVDDDTSCLFILEKMLLRLMYQVTICSQADVALTILRERKDSFDLVLSDVHMPGMNGYNLLQQVGLLEMDLPVIMMSVDGRTTTVMTGINHGACDYLIKPIRPEELKNIWQHVVRRKCVMKKELRSSQALEDNKNSGSLETVVVSVSECSEESLMKCRNKKKKKKRSVDRDDNEDDLLLDPGNSKKSRVVWSIELHQQFVNAVNKLGIDKAVPKRILELMNVPGLSRENVASHLQKFRLYLKRLSGEASQSNDSESTKRYENIQALVSSGQLHPQTLAALFGQPIDNHHSASFGVWIPNDNLGRSQNEHFSVDVSSASNRPVSVAVHGLSSSANFRQRGDVNNNRIRQGYGSNVNEESWILERSSRQR
no binding	ARR8, yeast two-hybrid fusion (protein, UniProt O80365 1-225) MVMETESKFHVLAVDDSLFDRKMIERLLQKSSCQVTTVDSGSKALEFLGLRVDDNDPNALSTSPQIHQEVEINLIITDYCMPGMTGYDLLKKVKESAAFRSIPVVIMSSENVPARISRCLEEGAEEFFLKPVKLADLTKLKPHMMKTKLKKESEKPVAIEEIVVSKPEIEEEEEESSVIEILPLHQEIESEQLEPMLSSNKRKAMEEVVSTDRSRPKYNDITTSV
no binding	ARR16, yeast two-hybrid fusion (protein, UniProt Q9SHC2 1-164) MNSSGGSCSSLMDVVAYDHHLHHGHDEELHVLAVDDNLIDRKLVERLLKISCCKVTTAENALRALEYLGLGDQNQHIDALTCNVMKVSLIITDYCMPGMTGFELLKKVKESSNLREVPVVIMSSENIPTRINKCLASGAQMFMQKPLKLADVEKLKCHLMNCRS
no binding	ARR11, yeast two-hybrid fusion (protein, UniProt Q9FXD6 1-521) MEKSGFSPVGLRVLVVDDDPTWLKILEKMLKKCSYEVTTCGLAREALRLLRERKDGYDIVISDVNMPDMDGFKLLEHVGLELDLPVIMMSVDGETSRVMKGVQHGACDYLLKPIRMKELKIIWQHVLRKKLQEVRDIEGCGYEGGADWITRYDEAHFLGGGEDVSFGKKRKDFDFEKKLLQDESDPSSSSSKKARVVWSFELHHKFVNAVNQIGCDHKAGPKKILDLMNVPWLTRENVASHLQKYRLYLSRLEKGKELKCYSGGVKNADSSPKDVEVNSGYQSPGRSSYVFSGGNSLIQKATEIDPKPLASASLSDLNTDVIMPPKTKKTRIGFDPPISSSAFDSLLPWNDVPEVLESKPVLYENSFLQQQPLPSQSSYVANSAPSLMEEEMKPPYETPAGGSSVNADEFLMPQDKIPTVTLQDLDPSAMKLQEFNTEAILRSLNWELPESHHSVSLDTDLDLTWLQGERFLANTGLQFQDYSSSPSLLSELPAHLNWYGNERLPDPDEYSFMVDQGLFIS
no binding	ARR3, yeast two-hybrid fusion (protein, UniProt Q9ZWS9 1-231) MAKDGGVSCLRRSEMIGIGIGELESPPLDSDQVHVLAVDDSLVDRIVIERLLRITSCKVTAVDSGWRALEFLGLDDDKAAVEFDRLKVDLIITDYCMPGMTGYELLKKIKESTSFKEVPVVIMSSENVMTRIDRCLEEGAEDFLLKPVKLADVKRLRSYLTRDVKVAAEGNKRKLTTPPPPPPLSATSSMESSDSTVESPLSMVDDEDSLTMSPESATSLVDSPMRSPGLA
no binding	ARR15, yeast two-hybrid fusion (protein, UniProt Q7G8V2 1-206) MALRDLSSSLSSSSSPELHVLAVDDSFVDRKVIERLLKISACKVTTVESGTRALQYLGLDGDNGSSGLKDLKVNLIVTDYSMPGLTGYELLKKIKESSALREIPVVIMSSENIQPRIEQCMIEGAEEFLLKPVKLADVKRLKELIMRGGEAEEGKTKKLSPKRILQNDIDSSPSSSSTSSSSSSHDVSSLDDDTPSSKRIKLESRG
no binding	ARR2, yeast two-hybrid fusion (protein, UniProt Q9ZWJ9 1-664) MVNPGHGRGPDSGTAAGGSNSDPFPANLRVLVVDDDPTCLMILERMLMTCLYRVTKCNRAESALSLLRKNKNGFDIVISDVHMPDMDGFKLLEHVGLEMDLPVIMMSADDSKSVVLKGVTHGAVDYLIKPVRIEALKNIWQHVVRKKRNEWNVSEHSGGSIEDTGGDRDRQQQHREDADNNSSSVNEGNGRSSRKRKEEEVDDQGDDKEDSSSLKKPRVVWSVELHQQFVAAVNQLGVDKAVPKKILEMMNVPGLTRENVASHLQKYRIYLRRLGGVSQHQGNMNHSFMTGQDQSFGPLSSLNGFDLQSLAVTGQLPPQSLAQLQAAGLGRPTLAKPGMSVSPLVDQRSIFNFENPKIRFGDGHGQTMNNGNLLHGVPTGSHMRLRPGQNVQSSGMMLPVADQLPRGGPSMLPSLGQQPILSSSVSRRSDLTGALAVRNSIPETNSRVLPTTHSVFNNFPADLPRSSFPLASAPGISVPVSVSYQEEVNSSDAKGGSSAATAGFGNPSYDIFNDFPQHQQHNKNISNKLNDWDLRNMGLVFSSNQDAATATATAAFSTSEAYSSSSTQRKRRETDATVVGEHGQNLQSPSRNLYHLNHVFMDGGSVRVKSERVAETVTCPPANTLFHEQYNQEDLMSAFLKQEGIPSVDNEFEFDGYSIDNIQV
